# Results from publication PMC7862700.
# The list shows a part of the results, in another mix than the full data. At the low end of the ranking the order means little.
# Target: T1, ETV3 (UniProt P41162-2)
# T1 sequence: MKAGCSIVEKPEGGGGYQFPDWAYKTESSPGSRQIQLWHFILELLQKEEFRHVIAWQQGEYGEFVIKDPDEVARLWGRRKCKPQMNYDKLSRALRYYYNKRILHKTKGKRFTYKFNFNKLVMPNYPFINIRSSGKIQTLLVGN
# Experiment: DAPPL (digital affinity profiling via proximity ligation, sequencing)
# Settings: 10 mM Tris-HCl pH 7.5, 50 mM NaCl, 1 mM DTT, 4% glycerol, room temperature, 30 min; GST-TFs on glutathione beads, 16-mer random dsDNA library, 0.1% …; high values mean tight binding; double strand, one strand shown; scale: fold enrichment (6-mer frequency, TF over GST control)
row,Sequence,binding signal
1,GTCTCT,1.27
2,ATGGTG,1.04
3,TGGGTT,1.02
4,TGATTA,1.08
5,GGATTT,1.21
6,TGCTGG,1.11
7,ATCCAC,1.14
8,CTACAT,1.44
9,CCCCTG,1.07
10,ACGCTA,1.21
11,TTCAAC,1.32
12,TCGACG,0.994
13,ATCCTT,1.84
14,TGCCGA,1.22
15,TCCCCC,1.51
16,CACTAT,1.2
17,AAAATA,1.13
18,CTTCTC,1.31
19,CTCTCC,1.45
20,TATAAT,1.19

# For convenience, some entries already given:
row,Sequence,binding signal
8,CTACAT,1.44
9,CCCCTG,1.07

# Continuation.

row,Sequence,binding signal
1,TCTGTA,1.25
2,ATACTC,1.33
3,TTGATC,1.26
4,ACCCCC,1.21
5,TTTGAT,1.32
6,AATTAA,1.25
7,ATGCGA,1.32
8,AAATCT,1.19
9,ATTTTA,1.26
10,AACACT,1.29
11,GCAAAT,0.984
12,CGCACT,1.39
13,TATACG,1.3
14,ATGGTC,1.55
15,TGGCAT,1.23
16,CTAAAT,1.4
17,AGCCTT,1.18
18,ACGGAT,1.3
19,TCTTGG,1.29
